Measured values taken from US8338472B2, “Hexahydrocyclopentyl[F]indazole carboxamides and derivatives thereof as selective glucocorticoid receptor modulators” (Merck Sharp & Dohme Corp., priority 2008, dated 2012).
Some results were stated once for a whole list of compounds, not compound by compound.

biological target: T1, glucocorticoid receptor (GR) (Homo sapiens, UniProt P04150); experiment: Ligand binding assay (GR BIND), 3H-dexamethasone displacement in MDA-MB-453 cell lysate; conditions: read-out: IC50 in the ligand binding assay; DEX as a reference
T1 sequence (P04150 1-777): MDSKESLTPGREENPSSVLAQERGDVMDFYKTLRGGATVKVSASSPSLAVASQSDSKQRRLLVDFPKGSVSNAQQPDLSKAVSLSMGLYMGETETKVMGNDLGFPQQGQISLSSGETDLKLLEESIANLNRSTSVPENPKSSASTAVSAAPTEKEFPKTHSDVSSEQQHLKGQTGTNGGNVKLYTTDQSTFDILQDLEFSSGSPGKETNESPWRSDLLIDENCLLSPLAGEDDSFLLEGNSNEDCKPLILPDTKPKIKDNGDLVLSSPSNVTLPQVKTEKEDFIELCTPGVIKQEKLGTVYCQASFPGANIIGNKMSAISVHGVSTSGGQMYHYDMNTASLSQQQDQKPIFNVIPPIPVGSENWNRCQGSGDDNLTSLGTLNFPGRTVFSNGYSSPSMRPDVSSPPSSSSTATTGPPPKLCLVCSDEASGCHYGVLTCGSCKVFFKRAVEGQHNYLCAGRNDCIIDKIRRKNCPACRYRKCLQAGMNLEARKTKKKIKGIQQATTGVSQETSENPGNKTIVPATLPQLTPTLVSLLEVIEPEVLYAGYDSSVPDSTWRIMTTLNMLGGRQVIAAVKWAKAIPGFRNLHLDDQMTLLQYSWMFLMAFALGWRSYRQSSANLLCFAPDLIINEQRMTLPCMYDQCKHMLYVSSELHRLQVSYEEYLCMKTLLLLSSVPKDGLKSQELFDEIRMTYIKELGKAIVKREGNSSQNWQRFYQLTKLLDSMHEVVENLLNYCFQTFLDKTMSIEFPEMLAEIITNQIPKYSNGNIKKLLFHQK

IC50, < 1000 nM:
CN(CC(O)C(F)(F)F)C(=O)[C@H]1CCC2=Cc3c(cnn3-c3ccc(F)cc3)C[C@@]21C (stereo partly drawn) [Compound 70, (4αR,5S)-1-(4-fluorophenyl)-N,4α-dimethyl-N-(3,3,3-trifluoro-2-hydroxypropyl)-1,4,4α,5,6,7-hexahydrocyclopenta[f]indazole-5-carboxamide]
CCN(CC(O)C(F)(F)F)C(=O)[C@H]1CCC2=Cc3c(cnn3-c3ccc(F)cc3)C[C@@]21C (stereo partly drawn) [Compound 71, (4αR,5S)-N-ethyl-1-(4-fluorophenyl)-4α-methyl-N-(3,3,3-trifluoro-2-hydroxypropyl)-1,4,4α,5,6,7-hexahydrocyclopenta[f]indazole-5-carboxamide]
C[C@H](O)CN(CCC(F)(F)F)C(=O)[C@H]1CCC2=Cc3c(cnn3-c3ccc(F)cc3)C[C@@]21C [Compound 73, (4αR,5S)-1-(4-fluorophenyl)-N-[(2S)-2-hydroxypropyl]-4α-methyl-N-(3,3,3-trifluoropropyl)-1,4,4α,5,6,7-. hexahydrocyclopenta[f]indazole-5-carboxamide]
CN(CC(O)C(F)(F)F)C(=O)[C@H]1CCC2=Cc3c(cnn3-c3ccccc3)C[C@@]21C (stereo partly drawn) [Compound 74, (4αR,5S)-N,4α-dimethy1-1-phenyl-N-(3,3,3-trifluoro-2-hydroxypropyl)-1,4,4α,5,6,7-hexahydrocyclopenta[f]indazole-5-carboxamide]
CCN(CC(O)C(F)(F)F)C(=O)[C@H]1CCC2=Cc3c(cnn3-c3ccccc3)C[C@@]21C (stereo partly drawn) [Compound 76, (4αR,5S)-N-ethyl-4α-methyl-1-phenyl-N-(3,3,3-trifluoro-2-hydroxypropyl)-1,4,4α,5,6,7-hexahydrocyclopenta[f]indazole-5-carboxamide]
CCCN(CC(O)C(F)(F)F)C(=O)[C@H]1CCC2=Cc3c(cnn3-c3ccccc3)C[C@@]21C (stereo partly drawn) [Compound 78, (4αR,5S)-4α-methyl-1-phenyl-N-propyl-N-(3,3,3-trifluoro-2-hydroxypropyl)-1,4,4α,5,6,7-hexahydrocyclopenta[f]indazole-5-carboxamide]
CCCCN(CC(O)C(F)(F)F)C(=O)[C@H]1CCC2=Cc3c(cnn3-c3ccccc3)C[C@@]21C (stereo partly drawn) [Compound 79, (4αR,5S)-N-butyl-4α-methyl-1-phenyl-N-(3,3,3-trifluoro-2-hydroxypropyl)-1,4,4α,5,6,7-hexahydrocyclopenta[f]indazole-5-carboxamide]
CC(C)CN(CC(O)C(F)(F)F)C(=O)[C@H]1CCC2=Cc3c(cnn3-c3ccccc3)C[C@@]21C (stereo partly drawn) [Compound 80, (4αR,5S)-N-isobutyl-4a-methyl-1-phenyl-N-(3,3,3-trifluoro-2-hydroxypropyl)-1,4,4α,5,6,7-hexahydrocyclopenta[f]indazole-5-carboxamide]
C[C@]12Cc3cnn(-c4ccccc4)c3C=C1CC[C@@H]2C(=O)N(CC1CC1)CC(O)C(F)(F)F (stereo partly drawn) [Compound 81, (4αR,5S)-N-(cyclopropylmethyl)-4α-methyl-1-phenyl-N-(3,3,3-trifluoro-2-hydroxypropyl)-1,4,4α,5,6,7-hexahydrocyclopenta[f]indazole-5-carboxamide]
Cc1ccc(CCN(CC(O)C(F)(F)F)C(=O)[C@H]2CCC3=Cc4c(cnn4-c4ccc(F)cc4)C[C@@]32C)cc1 (stereo partly drawn) [Compound 82, (4αR,5S)-1-(4-fluorophenyl)-4α-methyl-N-[2-(4-methylphenyl)ethyl]-N-(3,3,3-trifluoro-2-hydroxypropyl)-1,4,4α,5,6,7-hexahydrocyclopenta[f]indazole-5-carboxamide]
COc1ccccc1CCN(CC(O)C(F)(F)F)C(=O)[C@H]1CCC2=Cc3c(cnn3-c3ccc(F)cc3)C[C@@]21C (stereo partly drawn) [Compound 83, (4αR,5S)-1-(4-fluorophenyl)-N-[2-(2-methoxyphenyl)ethyl] -4α-methyl-N-(3,3,3-trifluoro-2-hydroxypropyl)-1,4,4α,5,6,7-hexahydrocyclopenta[f]indazole-5-carboxamide]
C[C@]12Cc3cnn(-c4ccc(F)cc4)c3C=C1CC[C@@H]2C(=O)N(CCc1ccccc1F)CC(O)C(F)(F)F (stereo partly drawn) [Compound 84, (4αR,5S)-1-(4-fluorophenyl)-N-[2(2-fluorophenyl)ethyl]-4α-methyl-N-(3,3,3-trifluoro-2-hydroxypropyl)-1,4,4α,5,6,7-hexahydrocyclopenta[f]indazole-5-carboxamide]
Cc1ccc(CCN(CC(O)CC(F)(F)F)C(=O)[C@H]2CCC3=Cc4c(cnn4-c4ccc(F)cc4)C[C@@]32C)cc1 (stereo partly drawn) [Compound 85, (4αR,5S)-1-(4-fluorophenyl)-4α-methyl-N-[2-(4-methylphenyl)ethyl]-N-(4,4,4-trifluoro-2-hydroxybutyl)-1,4,4α,5,6,7-hexahydrocyclopenta[f]indazole-5-carboxamide]
COc1ccccc1CCN(CC(O)CC(F)(F)F)C(=O)[C@H]1CCC2=Cc3c(cnn3-c3ccc(F)cc3)C[C@@]21C (stereo partly drawn) [Compound 86, (4αR,5S)-1-(4-fluorophenyl)-N-[2-(2-methoxyphenyl)ethyl]-4α-methyl-N-(4,4,4-trifluoro-2-hydroxybutyl)-1,4,4α,5 ,6,7-hexahydrocyclopenta[f]indazole-5-carboxamide]
C[C@]12Cc3cnn(-c4ccc(F)cc4)c3C=C1CC[C@@H]2C(=O)N(CCc1ccccc1F)CC(O)CC(F)(F)F (stereo partly drawn) [Compound 87, (4αR,5S)-1-(4-fluorophenyl)-N-[2-(2-fluorophenyl)ethyl]-4α-methyl-N-(4,4,4-trifluoro-2-hydroxybutyl)-1,4,4α,5,6,7-hexahydrocyclopenta[f]indazole-5-carboxamide]
CCCN(CCC(F)(F)F)C(=O)[C@H]1CCC2=Cc3c(cnn3-c3ccc(F)cc3)C[C@@]21C [Compound 88, (4αR,5S)-1-(4-fluorophenyl)-4α-methyl-N-propyl-N-(3,3,3-trifluoropropyl)-1,4,4α,5,6,7-hexahydrocyclopenta[f]indazole-5-carboxamide]
CO[C@H](C)CN(C)C(=O)[C@H]1CCC2=Cc3c(cnn3-c3ccc(F)cc3)C[C@@]21C [Compound 89, (4αR,5S)-1-(4-fluorophenyl)-N-[(2R)-2-methoxypropyl]-N,4α-dimethyl-1,4,4α,5,6,7-hexahydrocyclopenta[f]indazole-5-carboxamide]
CN(CCC(F)(F)F)C(=O)[C@H]1CCC2=Cc3c(cnn3-c3ccc(F)cc3)C[C@@]21C [Compound 90, (4αR,5S)-1-(4-fluorophenyl)-N,4α-dimethyl-N-(3,3,3-trifluoropropyl)-1,4,4α,5,6,7-hexahydrocyclopenta[f]indazole-5-carboxamide]
CCN(CCC(F)(F)F)C(=O)[C@H]1CCC2=Cc3c(cnn3-c3ccc(F)cc3)C[C@@]21C [Compound 91, (4αR,5S)-N-ethyl-1-(4-fluorophenyl)-4α-methyl-N-(3,3,3-trifluoropropyl)-1,4,4α,5,6,7-hexahydrocyclopenta[f]indazole-5-carboxamide]
